Results on three substances are retold here after publication PMC7594292, “Two conformations of DNA polymerase D-PCNA-DNA, an archaeal replisome complex, revealed by cryo-electron microscopy” (BMC Biology, 2020).

No constants are given. Whether binding was seen depends on the method and setting. A result given as binding can be weak or reduced; the word gives no strength.

Test [1] deals with T1, Thermococcus kodakarensis proliferating cell nuclear antigen PCNA1 (TkoPCNA), homotrimer (Thermococcus kodakarensis) (UniProt Q5JF32).
T1 sequence: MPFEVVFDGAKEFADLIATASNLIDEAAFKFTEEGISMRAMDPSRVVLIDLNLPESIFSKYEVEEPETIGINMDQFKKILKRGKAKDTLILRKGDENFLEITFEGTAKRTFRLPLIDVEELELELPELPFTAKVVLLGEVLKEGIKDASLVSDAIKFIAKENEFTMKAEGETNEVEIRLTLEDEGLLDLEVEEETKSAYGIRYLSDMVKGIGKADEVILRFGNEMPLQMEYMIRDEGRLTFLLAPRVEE
In words: cryo-EM structure; PolD-PCNA-primed DNA complex reconstituted from purified proteins without Mg2+ and isolated by gel filtration; Form A with DNA (25/35) at 6.9 Å, Form A and Form B with DNA (30/45); crystal structures and homology models fitted; both purified.

Test [2] has as its target T1, Thermococcus kodakarensis proliferating cell nuclear antigen PCNA1 (TkoPCNA), homotrimer (Thermococcus kodakarensis). Nature of the test: SPR; Biacore J; PCNA fixed on a CM5 chip; PolDs at 50-1000 nM flowed 120 s at 30 μl/min, 25 °C; 10 mM HEPES-NaOH pH 7.4, 0.15 M NaCl, 0.1% Tween 20; apparent KD; both purified. In general terms: SPR reads the build-up and loss of mass on a sensor chip optically.

On to “DP2, large subunit of Thermococcus kodakarensis PolD”, for which the binding result in test [1] is listed as “binds”.

On to “DP1, small subunit of Thermococcus kodakarensis PolD”, for which the binding result in test [1] is listed as “binds”.

For “PolDΔPIP: PolD with DP2(Δ1314-1324) (Thermococcus kodakarensis) (complex)”, the binding result in test [2] is on record as “binds”.
